Source: the supplement of paper PMC6411743
± gives the standard deviation of the averaged measurements. This is one part of the list.

Chains of the proteins cited; added tags and fusions are not shown. Lines headed by an entry give the natural chain unless they say otherwise; changes in a name come on top.
UniProt Q9UBN7: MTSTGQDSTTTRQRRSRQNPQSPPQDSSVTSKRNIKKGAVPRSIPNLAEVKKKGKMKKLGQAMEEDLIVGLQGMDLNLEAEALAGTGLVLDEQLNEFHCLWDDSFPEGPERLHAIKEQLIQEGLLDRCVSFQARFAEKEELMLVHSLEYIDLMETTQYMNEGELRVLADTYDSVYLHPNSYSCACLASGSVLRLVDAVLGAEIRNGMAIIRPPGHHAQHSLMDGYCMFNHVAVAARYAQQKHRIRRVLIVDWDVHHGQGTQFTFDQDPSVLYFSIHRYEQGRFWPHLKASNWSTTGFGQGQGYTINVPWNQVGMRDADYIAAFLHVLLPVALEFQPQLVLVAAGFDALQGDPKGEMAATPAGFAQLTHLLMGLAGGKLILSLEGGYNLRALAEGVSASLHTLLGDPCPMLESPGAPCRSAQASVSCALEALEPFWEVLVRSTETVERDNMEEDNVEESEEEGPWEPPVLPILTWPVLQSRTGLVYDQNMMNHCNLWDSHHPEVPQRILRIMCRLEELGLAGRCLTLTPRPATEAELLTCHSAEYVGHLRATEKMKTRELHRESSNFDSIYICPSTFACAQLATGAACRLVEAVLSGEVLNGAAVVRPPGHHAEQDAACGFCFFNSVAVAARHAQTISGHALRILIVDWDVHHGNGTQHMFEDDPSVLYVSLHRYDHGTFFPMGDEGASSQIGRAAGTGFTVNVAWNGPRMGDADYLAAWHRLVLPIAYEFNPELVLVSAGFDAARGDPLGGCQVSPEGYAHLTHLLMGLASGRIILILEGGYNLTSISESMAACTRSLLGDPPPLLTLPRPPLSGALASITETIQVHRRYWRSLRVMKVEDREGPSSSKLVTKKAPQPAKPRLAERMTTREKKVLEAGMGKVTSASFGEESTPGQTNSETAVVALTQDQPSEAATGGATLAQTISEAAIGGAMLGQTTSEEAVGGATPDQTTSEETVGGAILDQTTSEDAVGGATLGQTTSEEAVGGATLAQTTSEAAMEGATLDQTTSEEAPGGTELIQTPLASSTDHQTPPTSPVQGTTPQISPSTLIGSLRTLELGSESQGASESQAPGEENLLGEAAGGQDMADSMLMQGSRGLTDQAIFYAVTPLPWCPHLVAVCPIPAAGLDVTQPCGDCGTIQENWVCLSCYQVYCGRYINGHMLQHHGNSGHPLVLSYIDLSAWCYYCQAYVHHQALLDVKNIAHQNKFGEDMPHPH
UniProt Q9UBM7: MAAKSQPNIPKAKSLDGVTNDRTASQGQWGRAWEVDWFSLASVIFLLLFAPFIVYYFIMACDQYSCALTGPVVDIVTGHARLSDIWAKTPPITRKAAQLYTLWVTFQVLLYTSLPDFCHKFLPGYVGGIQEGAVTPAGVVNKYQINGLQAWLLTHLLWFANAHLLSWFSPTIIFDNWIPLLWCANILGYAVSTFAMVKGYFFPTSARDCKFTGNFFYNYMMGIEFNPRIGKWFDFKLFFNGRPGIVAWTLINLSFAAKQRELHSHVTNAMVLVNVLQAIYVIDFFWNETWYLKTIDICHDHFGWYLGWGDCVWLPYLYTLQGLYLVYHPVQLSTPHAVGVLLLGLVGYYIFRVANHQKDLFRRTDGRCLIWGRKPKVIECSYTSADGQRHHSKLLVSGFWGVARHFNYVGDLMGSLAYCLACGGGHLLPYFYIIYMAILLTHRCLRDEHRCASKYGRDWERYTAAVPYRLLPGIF
UniProt Q9UK76: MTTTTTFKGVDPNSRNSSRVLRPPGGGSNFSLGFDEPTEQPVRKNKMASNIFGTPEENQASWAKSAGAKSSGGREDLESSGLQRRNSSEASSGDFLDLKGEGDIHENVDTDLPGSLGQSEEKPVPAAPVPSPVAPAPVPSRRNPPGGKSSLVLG
UniProt Q9NUQ9: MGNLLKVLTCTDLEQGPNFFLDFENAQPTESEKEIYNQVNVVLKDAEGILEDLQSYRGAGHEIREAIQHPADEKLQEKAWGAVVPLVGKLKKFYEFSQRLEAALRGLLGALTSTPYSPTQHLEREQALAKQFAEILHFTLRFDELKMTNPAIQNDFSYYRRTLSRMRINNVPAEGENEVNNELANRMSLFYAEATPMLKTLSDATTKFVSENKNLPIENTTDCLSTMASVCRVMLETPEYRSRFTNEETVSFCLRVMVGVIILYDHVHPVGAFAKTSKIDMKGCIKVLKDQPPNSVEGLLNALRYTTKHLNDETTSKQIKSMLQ
UniProt Q9UL25: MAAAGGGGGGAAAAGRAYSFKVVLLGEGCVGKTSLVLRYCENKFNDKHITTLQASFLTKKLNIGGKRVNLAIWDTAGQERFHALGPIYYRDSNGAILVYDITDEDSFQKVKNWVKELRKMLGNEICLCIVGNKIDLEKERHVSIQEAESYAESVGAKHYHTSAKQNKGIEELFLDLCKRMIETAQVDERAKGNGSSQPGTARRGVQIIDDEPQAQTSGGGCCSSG
UniProt Q9UH99: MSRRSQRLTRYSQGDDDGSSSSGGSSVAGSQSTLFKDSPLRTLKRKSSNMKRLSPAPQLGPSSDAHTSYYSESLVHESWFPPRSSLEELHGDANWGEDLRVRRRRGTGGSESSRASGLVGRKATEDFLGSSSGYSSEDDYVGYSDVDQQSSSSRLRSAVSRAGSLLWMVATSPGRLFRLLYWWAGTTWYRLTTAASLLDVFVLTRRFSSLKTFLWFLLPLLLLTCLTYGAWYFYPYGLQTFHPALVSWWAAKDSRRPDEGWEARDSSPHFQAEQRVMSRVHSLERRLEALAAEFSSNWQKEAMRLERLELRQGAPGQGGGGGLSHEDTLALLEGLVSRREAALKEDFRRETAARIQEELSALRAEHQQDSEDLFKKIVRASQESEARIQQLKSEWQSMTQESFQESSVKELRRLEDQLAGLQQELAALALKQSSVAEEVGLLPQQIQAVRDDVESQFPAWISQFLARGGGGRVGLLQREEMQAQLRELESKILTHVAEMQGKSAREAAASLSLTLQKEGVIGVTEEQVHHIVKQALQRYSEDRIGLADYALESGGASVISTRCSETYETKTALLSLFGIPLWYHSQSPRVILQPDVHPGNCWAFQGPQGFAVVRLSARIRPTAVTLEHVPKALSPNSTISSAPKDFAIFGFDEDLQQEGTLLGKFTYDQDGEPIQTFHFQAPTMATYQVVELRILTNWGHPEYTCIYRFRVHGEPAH
UniProt Q9NYZ3: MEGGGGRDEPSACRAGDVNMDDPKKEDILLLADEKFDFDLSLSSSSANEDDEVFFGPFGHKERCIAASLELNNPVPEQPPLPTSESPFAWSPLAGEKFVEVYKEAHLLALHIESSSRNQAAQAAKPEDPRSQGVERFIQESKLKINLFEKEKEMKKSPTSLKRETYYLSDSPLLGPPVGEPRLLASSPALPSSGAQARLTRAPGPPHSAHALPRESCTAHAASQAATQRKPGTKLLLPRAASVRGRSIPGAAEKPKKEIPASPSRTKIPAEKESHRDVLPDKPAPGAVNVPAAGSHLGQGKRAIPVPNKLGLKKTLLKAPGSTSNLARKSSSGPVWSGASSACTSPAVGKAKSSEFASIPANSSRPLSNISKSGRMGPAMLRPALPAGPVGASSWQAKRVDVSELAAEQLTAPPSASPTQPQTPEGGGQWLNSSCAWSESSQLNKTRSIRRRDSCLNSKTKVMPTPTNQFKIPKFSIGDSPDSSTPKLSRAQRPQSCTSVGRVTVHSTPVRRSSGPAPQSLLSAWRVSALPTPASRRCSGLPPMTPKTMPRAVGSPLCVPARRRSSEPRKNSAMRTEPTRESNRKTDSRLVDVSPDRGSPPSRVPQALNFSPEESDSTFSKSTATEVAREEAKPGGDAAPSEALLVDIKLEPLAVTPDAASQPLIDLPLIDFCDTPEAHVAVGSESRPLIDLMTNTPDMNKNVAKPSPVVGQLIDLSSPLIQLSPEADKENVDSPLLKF
UniProt Q9NWQ8: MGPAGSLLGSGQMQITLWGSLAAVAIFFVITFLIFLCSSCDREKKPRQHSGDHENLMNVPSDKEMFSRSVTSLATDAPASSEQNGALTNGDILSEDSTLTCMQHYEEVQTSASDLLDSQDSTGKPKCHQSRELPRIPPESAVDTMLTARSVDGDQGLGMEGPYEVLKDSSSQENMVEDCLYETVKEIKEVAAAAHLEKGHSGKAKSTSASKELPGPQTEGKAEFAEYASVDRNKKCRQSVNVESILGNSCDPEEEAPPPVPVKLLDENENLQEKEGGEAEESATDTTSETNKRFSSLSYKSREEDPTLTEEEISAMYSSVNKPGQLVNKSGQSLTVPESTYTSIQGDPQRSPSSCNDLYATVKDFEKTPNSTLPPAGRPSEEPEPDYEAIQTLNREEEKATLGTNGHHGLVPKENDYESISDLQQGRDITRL
UniProt Q9P2E3: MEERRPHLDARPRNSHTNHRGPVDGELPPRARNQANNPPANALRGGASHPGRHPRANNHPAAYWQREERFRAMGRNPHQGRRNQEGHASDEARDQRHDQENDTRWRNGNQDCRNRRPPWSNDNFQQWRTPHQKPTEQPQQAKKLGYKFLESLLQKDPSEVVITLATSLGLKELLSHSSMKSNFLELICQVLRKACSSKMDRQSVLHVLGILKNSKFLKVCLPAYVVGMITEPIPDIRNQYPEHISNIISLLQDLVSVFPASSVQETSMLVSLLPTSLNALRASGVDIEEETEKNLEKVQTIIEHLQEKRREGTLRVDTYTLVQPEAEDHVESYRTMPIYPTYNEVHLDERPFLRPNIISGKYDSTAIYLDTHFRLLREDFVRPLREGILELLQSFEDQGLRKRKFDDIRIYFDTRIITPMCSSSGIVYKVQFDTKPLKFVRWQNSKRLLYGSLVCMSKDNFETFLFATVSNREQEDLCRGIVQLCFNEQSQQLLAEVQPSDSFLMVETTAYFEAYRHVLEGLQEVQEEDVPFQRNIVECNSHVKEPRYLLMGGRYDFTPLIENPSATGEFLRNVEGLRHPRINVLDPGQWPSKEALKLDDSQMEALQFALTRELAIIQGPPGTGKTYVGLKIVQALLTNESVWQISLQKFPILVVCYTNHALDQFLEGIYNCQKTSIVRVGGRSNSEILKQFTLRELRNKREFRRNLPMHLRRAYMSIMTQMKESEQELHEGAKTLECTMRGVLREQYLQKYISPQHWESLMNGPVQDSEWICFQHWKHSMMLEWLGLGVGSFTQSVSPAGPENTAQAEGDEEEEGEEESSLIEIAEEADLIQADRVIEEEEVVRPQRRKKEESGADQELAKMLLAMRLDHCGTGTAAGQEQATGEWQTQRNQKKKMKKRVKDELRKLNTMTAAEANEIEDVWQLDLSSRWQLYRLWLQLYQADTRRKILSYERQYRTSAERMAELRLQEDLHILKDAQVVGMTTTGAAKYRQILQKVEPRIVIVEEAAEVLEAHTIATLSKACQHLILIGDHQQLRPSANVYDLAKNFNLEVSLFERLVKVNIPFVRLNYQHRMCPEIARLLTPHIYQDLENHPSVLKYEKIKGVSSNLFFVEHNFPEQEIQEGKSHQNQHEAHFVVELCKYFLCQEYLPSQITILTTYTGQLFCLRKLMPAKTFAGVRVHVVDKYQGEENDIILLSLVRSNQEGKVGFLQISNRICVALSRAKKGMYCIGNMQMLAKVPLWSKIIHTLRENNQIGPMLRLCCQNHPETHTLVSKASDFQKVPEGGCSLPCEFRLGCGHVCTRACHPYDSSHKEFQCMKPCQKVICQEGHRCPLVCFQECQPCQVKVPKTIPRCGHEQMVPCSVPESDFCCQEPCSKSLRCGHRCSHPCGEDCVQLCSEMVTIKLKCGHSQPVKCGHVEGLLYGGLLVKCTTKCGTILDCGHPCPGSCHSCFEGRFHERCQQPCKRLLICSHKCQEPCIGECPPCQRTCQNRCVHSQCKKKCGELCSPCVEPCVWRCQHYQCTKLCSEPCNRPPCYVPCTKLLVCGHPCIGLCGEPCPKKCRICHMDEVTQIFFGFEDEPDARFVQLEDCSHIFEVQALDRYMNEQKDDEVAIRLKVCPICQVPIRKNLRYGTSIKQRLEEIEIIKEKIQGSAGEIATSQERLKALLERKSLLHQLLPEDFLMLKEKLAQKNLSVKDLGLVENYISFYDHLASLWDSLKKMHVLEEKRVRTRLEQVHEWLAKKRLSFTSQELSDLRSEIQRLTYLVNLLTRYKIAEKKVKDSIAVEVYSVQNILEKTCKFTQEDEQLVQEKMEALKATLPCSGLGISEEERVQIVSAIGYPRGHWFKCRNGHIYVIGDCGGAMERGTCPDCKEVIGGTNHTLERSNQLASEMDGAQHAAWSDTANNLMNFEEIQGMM
UniProt Q9NWB6: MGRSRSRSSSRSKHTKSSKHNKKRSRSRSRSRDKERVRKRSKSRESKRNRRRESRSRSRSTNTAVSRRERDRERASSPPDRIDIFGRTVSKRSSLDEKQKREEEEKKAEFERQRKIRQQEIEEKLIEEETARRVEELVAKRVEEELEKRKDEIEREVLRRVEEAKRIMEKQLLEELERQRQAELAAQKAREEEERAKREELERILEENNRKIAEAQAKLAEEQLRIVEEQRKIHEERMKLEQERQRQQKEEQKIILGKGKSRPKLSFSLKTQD

Compound: Nc1nc2c(ncn2[C@@H]2O[C@H](COP(=O)(O)OP(=O)(O)OP(=O)(O)O)[C@@H](O)[C@H]2O)c(=O)[nH]1 [guanosine triphosphate]
Assay: NP40-soluble protein abundance relative to vehicle (solubility fold change) (ratio); higher = more soluble protein in presence of GTP
How it was run: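 Each value is a fold change relative to the detergent-processed vehicle, calculated per replicate from vsn-normalised intensities. Jurkat crude lysate received eight concentrations (0.1 to 10 mM) for 10 min at room temperature and 3 min at 37 °C, then was solubilised in 0.8% NP40 with benzonase (60 min, 4 °C). The ultracentrifuged supernatant was TMT-labelled and run by LC-MS/MS in three independent experiments.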

Target	NP40-soluble protein abundance (concentration: 0.1mM)	NP40-soluble protein abundance (concentration: 0.5mM)	NP40-soluble protein abundance (concentration: 1mM)	NP40-soluble protein abundance (concentration: 2mM)	NP40-soluble protein abundance (concentration: 4mM)	NP40-soluble protein abundance (concentration: 6mM)	NP40-soluble protein abundance (concentration: 8mM)	NP40-soluble protein abundance (concentration: 10mM)
HDAC6 (UniProt Q9UBN7)	0.988 ± 0.03	0.978 ± 0.047	0.941 ± 0.078	0.964 ± 0.08	0.905 ± 0.074	0.953 ± 0.096	0.941 ± 0.039	0.899 ± 0.065
UniProt Q9UER7 and related entries	0.948 ± 0.067	0.948 ± 0.042	0.998 ± 0.058	0.986 ± 0.082	0.97 ± 0.067	0.979 ± 0.051	0.993 ± 0.06	1.05 ± 0.12
DHCR7 (UniProt Q9UBM7)	1.1 ± 0.1	1.05 ± 0.11	0.98 ± 0.069	0.982 ± 0.091	0.999 ± 0.11	0.959 ± 0.079	0.991 ± 0.033	0.968 ± 0.052
FAM8A1 (UniProt Q9UBU6)	0.961 ± 0.086	0.957 ± 0.081	1.0698 ± 0.00034	1.05 ± 0.0056	0.951 ± 0.1	0.991 ± 0.095	1.01 ± 0.12	0.978 ± 0.089
UniProt Q9NYP7 and related entries	1.07 ± 0.022	1.06 ± 0.054	0.894 ± 0.082	0.917 ± 0.088	0.897 ± 0.065	0.917 ± 0.079	0.87 ± 0.063	0.817 ± 0.063
FKBPL (UniProt Q9UIM3)	0.917 ± 0.1	0.892 ± 0.15	1.01 ± 0.23	1.02 ± 0.11	0.924 ± 0.24	1 ± 0.13	0.982 ± 0.25	1 ± 0.11
UniProt Q9UK76	1.09 ± 0.044	1.09 ± 0.06	1.08 ± 0.035	0.984 ± 0.15	0.934 ± 0.089	0.947 ± 0.15	1.01 ± 0.091	0.998 ± 0.12
UniProt Q9NW08 and related entries	1.08 ± 0.03	1.13 ± 0.075	1.09 ± 0.12	1.15 ± 0.18	1.19 ± 0.16	1.16 ± 0.19	1.13 ± 0.18	1.09 ± 0.17
UniProt Q9NYV4 and related entries	1.03 ± 0.08	1.13 ± 0.066	1.17 ± 0.03	1.18 ± 0.11	1.21 ± 0.089	1.26 ± 0.13	1.31 ± 0.12	1.32 ± 0.2
CHD7 (UniProt Q9P2D1)	0.994 ± 0.0092	0.988 ± 0.1	1.03 ± 0.13	0.985 ± 0.13	0.957 ± 0.03	1.03 ± 0.16	0.904 ± 0.044	0.992 ± 0.0044
UniProt Q9NUQ9 and related entries	0.902 ± 0.041	0.905 ± 0.062	0.909 ± 0.087	0.886 ± 0.095	0.849 ± 0.11	0.866 ± 0.098	0.831 ± 0.1	0.858 ± 0.087
MRPL16 (UniProt Q9NX20)	1.13 ± 0.039	1.15 ± 0.091	1.18 ± 0.2	1.25 ± 0.24	1.26 ± 0.19	1.23 ± 0.28	1.18 ± 0.27	1.14 ± 0.34
RAB21 (UniProt Q9UL25)	0.998 ± 0.058	0.967 ± 0.036	0.87 ± 0.016	0.862 ± 0.011	0.837 ± 0.029	0.84 ± 0.039	0.812 ± 0.048	0.813 ± 0.093
UniProt Q9UH99 and related entries	1.045 ± 0.0039	1.14 ± 0.033	1.09 ± 0.025	1.11 ± 0.016	1.09 ± 0.022	1.11 ± 0.036	1.13 ± 0.026	1.11 ± 0.023
POGK (UniProt Q9P215)	1.18 ± 0.16	1.018 ± 0.0049	1.13 ± 0.095	1.03 ± 0.054	1 ± 0.023	1.06 ± 0.084	1.03 ± 0.054	0.965 ± 0.035
ACAD8 (UniProt Q9UKU7)	1.03 ± 0.064	1.02 ± 0.044	0.932 ± 0.011	0.968 ± 0.064	0.96 ± 0.022	0.948 ± 0.037	0.935 ± 0.014	0.905 ± 0.046
GTSE1 (UniProt Q9NYZ3)	1.06 ± 0.021	1.02 ± 0.033	1.17 ± 0.075	1.12 ± 0.035	1.171 ± 0.0097	1.16 ± 0.049	1.27 ± 0.034	1.29 ± 0.016
UniProt Q9UKJ3 and related entries	1.02 ± 0.025	1.11 ± 0.058	1.19 ± 0.045	1.03 ± 0.075	0.978 ± 0.066	0.945 ± 0.073	1.03 ± 0.12	0.924 ± 0.1
PAG1 (UniProt Q9NWQ8)	0.966 ± 0.077	0.963 ± 0.075	0.979 ± 0.066	0.988 ± 0.1	0.934 ± 0.068	0.977 ± 0.1	0.969 ± 0.051	1.03 ± 0.043
UniProt Q9UKT4 and related entries	1.08 ± 0.099	1 ± 0.014	1.13 ± 0.19	1.1 ± 0.11	1.16 ± 0.14	1.12 ± 0.12	1.03 ± 0.052	1.07 ± 0.03
VPS51 (UniProt Q9UID3)	1.09 ± 0.031	1.07 ± 0.026	0.987 ± 0.087	1.06 ± 0.041	1.03 ± 0.075	0.998 ± 0.046	0.969 ± 0.032	0.923 ± 0.04
ZNFX1 (UniProt Q9P2E3)	1.09 ± 0.075	1.137 ± 0.0073	1.15 ± 0.018	1.1 ± 0.13	1.06 ± 0.041	1.13 ± 0.014	1.15 ± 0.012	1.05 ± 0.096
UniProt Q9UKI8 and related entries	0.999 ± 0.035	0.983 ± 0.044	0.912 ± 0.048	0.906 ± 0.053	0.886 ± 0.063	0.913 ± 0.048	0.892 ± 0.096	0.887 ± 0.068
ARGLU1 (UniProt Q9NWB6)	1.05 ± 0.024	1.13 ± 0.062	1.3 ± 0.092	1.27 ± 0.063	1.3 ± 0.072	1.43 ± 0.062	1.62 ± 0.06	1.64 ± 0.05

Some of the entries so far, as comma-separated lines.
Target,NP40-soluble protein abundance (concentration: 0.1mM),NP40-soluble protein abundance (concentration: 0.5mM),NP40-soluble protein abundance (concentration: 1mM),NP40-soluble protein abundance (concentration: 2mM),NP40-soluble protein abundance (concentration: 4mM),NP40-soluble protein abundance (concentration: 6mM),NP40-soluble protein abundance (concentration: 8mM),NP40-soluble protein abundance (concentration: 10mM)
FKBPL (UniProt Q9UIM3),0.917 ± 0.1,0.892 ± 0.15,1.01 ± 0.23,1.02 ± 0.11,0.924 ± 0.24,1 ± 0.13,0.982 ± 0.25,1 ± 0.11
UniProt Q9UK76,1.09 ± 0.044,1.09 ± 0.06,1.08 ± 0.035,0.984 ± 0.15,0.934 ± 0.089,0.947 ± 0.15,1.01 ± 0.091,0.998 ± 0.12
